Laboratory results from PMC7819943, “Rice protein-binding microarrays: a tool to detect cis-acting elements near promoter regions in rice”.
The list shows a part of the results.

The chains behind the UniProt entries cited, without tags or fusion partners.
UniProt Q0JBA9, entry or part of it: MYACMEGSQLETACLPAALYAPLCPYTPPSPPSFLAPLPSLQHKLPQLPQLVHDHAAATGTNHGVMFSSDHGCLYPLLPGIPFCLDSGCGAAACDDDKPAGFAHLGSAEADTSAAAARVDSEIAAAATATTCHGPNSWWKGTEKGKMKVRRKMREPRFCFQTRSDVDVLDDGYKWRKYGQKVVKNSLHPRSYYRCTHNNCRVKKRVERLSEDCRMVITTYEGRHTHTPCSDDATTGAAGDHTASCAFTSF

These sequences were tested against OsWRKY34 (Oryza sativa, UniProt Q0JBA9 1-250) (assay: protein-binding microarray (RPBM); PBS, 2% BSA, 51.3 ng/ul salmon testes DNA, 50 uM zinc acetate, 200 nM TF, 25 C, 1 h; high values mean tight binding). Conditions: protein: recombinant; tags: N-terminal polyhistidine and DsRed monomer fusion (pET32a); label: CyDye5-dUTP incorporated in the synthesized complementary strand; 3' TTTTT single-stranded linker to array surface; dsDNA, one strand shown.
Method in brief: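 In PBS with 2% BSA, salmon testes DNA and 50 µM zinc acetate, 200 nM protein was incubated on a custom Agilent array at 25 °C for 1 h and then washed off. The array had been made double-stranded by primer extension with Cy5-dUTP and blocked with 2% BSA. The proteins were transcription factors fused N-terminally to polyhistidine and DsRed, expressed in E. coli BL21-CodonPlus and purified on Ni–NTA. The binding signal is per-feature fluorescence intensity (arbitrary units) from an Axon 4000B scanner.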

| Sequence | binding signal |
| --- | --- |
| TTTTGTAATGTTGTTGCTGTCCCCTGTCCTGAGCTATTATCGGAGTCACCTAGTGCAG | 11800 fluorescence intensity (a.u.) |
| ATCCATCTTCGTGACAGCTCCGAGCTTTCTCCTGGTTATTCGGAGTCACCTAGTGCAG | 8940 fluorescence intensity (a.u.) |
| TTTATTACATGTCAACTAGTTAAATGGTTAATTTTTTTTTCGGAGTCACCTAGTGCAG | 8580 fluorescence intensity (a.u.) |
| ATATATTCCTTATATGCGTTCCTATTTCCTTGTTTTTATCCGGAGTCACCTAGTGCAG | 11300 fluorescence intensity (a.u.) |
| CTACACGAGAATGTAATGTTTCTCTCTCTCTTTTTTTTTTCGGAGTCACCTAGTGCAG | 8570 fluorescence intensity (a.u.) |
| GTTTTTGACCACGGTTCATTCGTATAATTAGTTTTTGCAACGGAGTCACCTAGTGCAG | 10600 fluorescence intensity (a.u.) |
| CATTTCAGAGAGAGAGAGGGGTAGTGGCCAGTGGGGTGTACGGAGTCACCTAGTGCAG | 8090 fluorescence intensity (a.u.) |
| ATTTCGATGGGTTTTATCAAAATTCAAATTTGAATTGATACGGAGTCACCTAGTGCAG | 8170 fluorescence intensity (a.u.) |
| AGTCGCAGTGGTTTTGGTTGGTTGGTTGATTACATTTTGACGGAGTCACCTAGTGCAG | 20000 fluorescence intensity (a.u.) |
| TCTCTTTCTCTCTCTCCTCTTCTTCCTTGGCGAGTTGTGCCGGAGTCACCTAGTGCAG | 8080 fluorescence intensity (a.u.) |
| CCTCTGAGTCTATCTCTCTCATTTGATTCCTATGTTTTTCCGGAGTCACCTAGTGCAG | 11800 fluorescence intensity (a.u.) |
| TCCTTTGGTCATTTTGTCTCTGTGTTCCATGTGTTAAATTCGGAGTCACCTAGTGCAG | 8390 fluorescence intensity (a.u.) |
| TACATACTTTTTTTTCCTCATATGATTACGTTCCATAAATCGGAGTCACCTAGTGCAG | 9030 fluorescence intensity (a.u.) |
| GGTGGGGTGGCGGAGGTCATGGCGGCCAAGGTCGTCACCGCGGAGTCACCTAGTGCAG | 8420 fluorescence intensity (a.u.) |
| CTGATGAATCTGCAAGCACTACTCGTACGATCCAGCTCTCCGGAGTCACCTAGTGCAG | 8810 fluorescence intensity (a.u.) |
| ATCTCTTCTTAGTTTTCTCATGCCAACTCGCCAGTTGACTCGGAGTCACCTAGTGCAG | 8380 fluorescence intensity (a.u.) |
| CATTGGCCTTGGTTAGTTAACATTACATTATTAATACACACGGAGTCACCTAGTGCAG | 8760 fluorescence intensity (a.u.) |
| TTATTCCTTGTTTCCCGATTTTTTTTTCGGACTCCATCTCCGGAGTCACCTAGTGCAG | 8350 fluorescence intensity (a.u.) |
| TCAACCGTATCTGACGCCTGCATTTCCTCTACCAGCCAAGCGGAGTCACCTAGTGCAG | 9510 fluorescence intensity (a.u.) |
| ATCATGTGTTCCTTTCTCAGTCCTCGGCCGTATTGCTTGTCGGAGTCACCTAGTGCAG | 12300 fluorescence intensity (a.u.) |
| ACCCTCGGACCGGTTTTTTTACTATGCCTCAAACATGTTCCGGAGTCACCTAGTGCAG | 9800 fluorescence intensity (a.u.) |

| Sequence | binding signal |
| --- | --- |
| TTCGACGTATTGCCCTCGTGCGGACCGCACCGTTTCCTTGCGGAGTCACCTAGTGCAG | 8780 fluorescence intensity (a.u.) |
| TCGTTCGATTTCTTGGTCCATTCCTTGTCCGTAGTGTTCTCGGAGTCACCTAGTGCAG | 10900 fluorescence intensity (a.u.) |
| TTGACTTTGTTTAAAGTCAAACTGCTTCAAGTTTGACTAACGGAGTCACCTAGTGCAG | 9550 fluorescence intensity (a.u.) |
| CTCCAGGTTGGCTCACTTTTGCTTTGCTTTTTGGCTCATGCGGAGTCACCTAGTGCAG | 8470 fluorescence intensity (a.u.) |
| AGCTTGCTGCTATCCTGCGCCATCTCCGAGTCTCGGTGTTCGGAGTCACCTAGTGCAG | 8990 fluorescence intensity (a.u.) |
| TCTACACACACAAACTTTCAACTTTTCTGTCACATCGTTCCGGAGTCACCTAGTGCAG | 9290 fluorescence intensity (a.u.) |
| GTGTGATGATGAGTGTGGCGGCTGCGGTGTCGATGTCCTCCGGAGTCACCTAGTGCAG | 8030 fluorescence intensity (a.u.) |
| GTAGCCATACCCACCTGCTGCCGATCCCCACCTGCTACCGCGGAGTCACCTAGTGCAG | 11000 fluorescence intensity (a.u.) |
| ACAGGTATTCCTTCACATATCTTCACATCAACCTCCTCTCCGGAGTCACCTAGTGCAG | 8120 fluorescence intensity (a.u.) |
| AATCATCGCCTCATCGGCTCCACGCTCCTCGTCTCTCTCGCGGAGTCACCTAGTGCAG | 9280 fluorescence intensity (a.u.) |
| GACATGACTGGACTAACTTGGATCATATTGCTGCTAGCTACGGAGTCACCTAGTGCAG | 8850 fluorescence intensity (a.u.) |
| GTAACTGGCCTCTTTTCTCATGGCTAAATTTCTTTGTTCTCGGAGTCACCTAGTGCAG | 11200 fluorescence intensity (a.u.) |
| ACCTCGAGCTCCTACTCTCCCCGGTGATCTCTCGCTTCGACGGAGTCACCTAGTGCAG | 9510 fluorescence intensity (a.u.) |
| TGCCTACCGCGAGGCGCGACTCATACCTCGCTCGTCTCACCGGAGTCACCTAGTGCAG | 9870 fluorescence intensity (a.u.) |
| GGGGAATGAGGCGGGGAATGGGGCACCGAGGTCGCCACAACGGAGTCACCTAGTGCAG | 11300 fluorescence intensity (a.u.) |
| TCTACTTTGACCCTTCTTGGTGCCCCTTGCTGCAACCAACCGGAGTCACCTAGTGCAG | 8710 fluorescence intensity (a.u.) |
| CGTGGGCACAGTGGCGTCCATCATGGCGTTGGTTGACCAGCGGAGTCACCTAGTGCAG | 9450 fluorescence intensity (a.u.) |
| ATATACACGGTACACCATGTCGTCGCCGCAGGCCAAATCCCGGAGTCACCTAGTGCAG | 8890 fluorescence intensity (a.u.) |
| ATATTGAAATTTTCTGTTGCTATCTTCTCTAGACAATATACGGAGTCACCTAGTGCAG | 10900 fluorescence intensity (a.u.) |
| TAGCAGTGGTCTCCGTTTACATGTCCTTATAACTCATCTACGGAGTCACCTAGTGCAG | 8410 fluorescence intensity (a.u.) |
| GTGTTCGTTTTGGATTTTGGTTTCAGTTTAGTATATGCACCGGAGTCACCTAGTGCAG | 11300 fluorescence intensity (a.u.) |
